Source: article doi:10.1101/2023.05.31.543024
Numbering of substitutions follows the chain as printed. These are yes or no findings as the source states them, for the method shown. Binding seen in cells or lysates may run through a third protein. Some binding calls cover weakened binding; strength is not graded here. Where a sequence is shown, tags or fusion partners need not be part of it.

Key:
Test in all cases: co-IP
[1] = molecular target: T1, HA-DRG1 Y262A + D280Y (human) (UniProt Q9Y295)
T1 sequence: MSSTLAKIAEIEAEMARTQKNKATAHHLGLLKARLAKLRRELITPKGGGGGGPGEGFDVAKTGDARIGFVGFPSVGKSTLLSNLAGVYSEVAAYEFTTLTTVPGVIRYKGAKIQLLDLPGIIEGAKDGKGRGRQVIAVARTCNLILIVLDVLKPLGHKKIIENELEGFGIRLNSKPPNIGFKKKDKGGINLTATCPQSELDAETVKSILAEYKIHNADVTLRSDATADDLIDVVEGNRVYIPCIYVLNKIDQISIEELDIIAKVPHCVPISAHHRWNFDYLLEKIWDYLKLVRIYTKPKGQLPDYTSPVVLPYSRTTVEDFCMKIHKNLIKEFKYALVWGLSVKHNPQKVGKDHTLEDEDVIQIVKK

HA-DRG1 Y262A (human) = molecular target: T2, HA-DRG1 Y262A (human) (UniProt Q9Y295)
T2 sequence: T1 sequence with Y280D

HA-DRG2 K262V (human) = molecular target: T3, HA-DRG2 K262V (human) (UniProt P55039)
T3 sequence: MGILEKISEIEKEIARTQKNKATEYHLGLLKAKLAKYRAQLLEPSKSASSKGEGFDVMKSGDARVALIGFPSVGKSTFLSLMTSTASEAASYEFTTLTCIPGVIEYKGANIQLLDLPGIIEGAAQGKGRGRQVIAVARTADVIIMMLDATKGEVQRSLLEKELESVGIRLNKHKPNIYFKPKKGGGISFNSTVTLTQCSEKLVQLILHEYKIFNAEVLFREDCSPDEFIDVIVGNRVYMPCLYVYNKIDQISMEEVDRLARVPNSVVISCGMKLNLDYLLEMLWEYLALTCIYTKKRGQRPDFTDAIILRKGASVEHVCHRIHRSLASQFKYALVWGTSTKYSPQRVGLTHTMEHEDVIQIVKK

HA-DRG1 D280Y (human) = molecular target: T4, HA-DRG1 D280Y (human) (UniProt Q9Y295)
T4 sequence: T1 sequence with A262Y

HA-DRG2 A260Y (human) = molecular target: T5, HA-DRG2 A260Y (human) (UniProt P55039)
T5 sequence: T3 sequence with A260Y, V262K

binding [1]: binds
binding (HA-DRG1 Y262A (human)): binds
binding (HA-DRG2 K262V (human)): binds
binding (HA-DRG1 D280Y (human)): binds
binding (HA-DRG2 A260Y (human)): no binding
B1: DRG family regulatory protein 2 (DFRP2), endogenous (protein, UniProt Q9H446 1-243)
chain: MTDYGEEQRNELEALESIYPDSFTVLSENPPSFTITVTSEAGENDETVQTTLKFTYSEKYPDEAPLYEIFSQENLEDNDVSDILKLLALQAEENLGMVMIFTLVTAVQEKLNEIVDQIKTRREEEKKQKEKEAEEAEKQLFHGTPVTIENFLNWKAKFDAELLEIKKKRMKEEEQAGKNKLSGKQLFETDHNLDTSDIQFLEDAGNNVEVDESLFQEMDDLELEDDEDDPDYNPADPESDSAD
